Tested on: rhesus HER2
Experiment: Surface Plasmon Resonance, rhesus HER2-ECD-Fc
Assay type: binding
Procedure: To characterize the affinity of [^19F]GE-226[SEQ ID NO 1] to HER2 protein, Surface Plasmon Resonance studies were conducted. Human, rhesus and rat HER2-ECD-Fc (SINO Biological, Beijing, China, Cat. Nr: 10004-H02H, 90020-K02H, and 80079-R02H), as well as human HER2-ECD-Fc-6×His (R&D Systems, Minneapolis, Minn., Cat. Nr: 1129-ER) and p95HER2 ECD-Fc-6×His (Syngene, Cambridge, United Kingdom) were diluted with 50 mM sodium acetate pH 4.5 (Biacore (GE Healthcare, Buckinghamshire, UK) coupling buffer) to a final concentration of 10 μg/mL. Antigen coupling to Biacore sensor chip CMS (Cat. Nr: BR-1005-30) was done according to amine coupling protocol from the instrument manual […]. HBS-EP buffer (10 mM HEPES pH 7.4, 150 mM NaCl, 3 mM EDTA and 0.005% surfactant P20; GE Healthcare, Little Chalfont, United Kingdom, Cat. Nr: BR-1006-69) was used as running buffer and as solvent for the substances. The affinity studies were performed using a Biacore T100 (GE Healthcare). [^19F]GE-226 was diluted in HBS-EP buffer to 50 nM, 25 nM, 12.5 nM, 6.25 nM, 3.125 nM, 1.56 nM, 0.78 nM, 0.39 nM, 0.195 nM, 0.097 nM, 0.049 nM and 0 nM. The flow cells of the first chip comprised of blank, human HER2-ECD-Fc-6×His, p95HER2-ECD-Fc-6×His batch I and p95HER2-ECD-Fc-6×His batch II. The flow cells on the second chip contained blank, human HER2-ECD-Fc, rhesus HER2-ECD-Fc and rat HER2 ECD-Fc. […]

“[^19F]GE-226: cold unlabeled non-radioactive 19F analogue of the tracer, used for SPR and blocking” was tested, and the Rmax was 138.1.

Source: patent publication US10646600B2, “HER2 polypeptides useful for imaging and monitoring tumors and cancers” (GE HEALTHCARE LIMITED, priority 2013, dated 2020)
